From patent US8679479
These are yes or no findings as the source states them, for the method shown. Some results given as binding are weak or reduced against the parent protein; the word gives no strength.

Amino acid sequences for entries named in this document (tags omitted). A change or cut given only in a name is not applied to a line headed by its entry.
UniProt P05089: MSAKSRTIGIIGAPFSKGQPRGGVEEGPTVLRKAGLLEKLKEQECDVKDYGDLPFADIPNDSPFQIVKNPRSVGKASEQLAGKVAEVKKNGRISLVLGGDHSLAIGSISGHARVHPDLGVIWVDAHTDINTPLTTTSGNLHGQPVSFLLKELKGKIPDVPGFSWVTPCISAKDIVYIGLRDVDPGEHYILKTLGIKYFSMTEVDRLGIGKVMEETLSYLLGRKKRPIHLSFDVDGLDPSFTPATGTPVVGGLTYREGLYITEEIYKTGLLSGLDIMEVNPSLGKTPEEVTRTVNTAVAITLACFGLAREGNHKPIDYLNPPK

Experiments:
[1] = molecular target: human Arginase I (hArgI), N-terminal Cys variant NTC-hArgI (human) (UniProt P05089); test: SEC at pH 7.4 and pH 4.5 (self-association)
[2] = molecular target: human Arginase I (hArgI), N-terminal Cys variant NTC-hArgI (human) (UniProt P05089); test: SEC, Superdex 200, PBS pH 7.4 (self-association)

- binding [1]: binds
- binding [2]: binds
B1: human Arginase I (hArgI), N-terminal Cys variant NTC-hArgI (enzyme)
chain: MGCSHHHHHHSSGSAKSRTIGIIGAPFSKGQPRGGVEEGPTVLRKAGLLEKLKEQECDVKDYGDLPFADIPNDSPFQIVKNPRSVGKASEQLAGKVAEVKKNGRISLVLGGDHSLAIGSISGHARVHPDLGVIWVDAHTDINTPLTTTSGNLHGQPVSFLLKELKGKIPDVPGFSWVTPCISAKDIVYIGLRDVDPGEHYILKTLGIKYFSMTEVDRLGIGKVMEETLSYLLGRKKRPIHLSFDVDGLDPSFTPATGTPVVGGLTYREGLYITEEIYKTGLLSGLDIMEVNPSLGKTPEEVTRTVNTAVAITLACFGLAREGNHKPIDYLNPPK
